Patent US20220105183A1, “MICRO-NANO STRUCTURE FORMED BY SELF-ASSEMBLING ORGANIC SMALL MOLECULE COMPOUND AND USE THEREOF” (Qingdao University of Science and Technology, priority 2018, published 2022)
Some results were stated once for a whole list of compounds, not compound by compound. Some compounds share one range, which may span the group rather than tell each member.

Test: DLS particle size / self-assembly of the compounds in aqueous solution
Assay type: physicochemical
Protocol: The term “particle size” refers to the size of particles, also known as “granularity” or “diameter”. When a certain physical characteristic or physical behavior of the measured particle is closest to a homogeneous sphere (or combination) of a certain diameter, the diameter (or combination) of the sphere is taken as the equivalent particle size of the measured particle. The particle size parameter of the micro-nano structure of the present invention is measured by the principle of dynamic light scattering (DLS), specifically measured by a laser particle size analyzer.
Taking the self-assembled micro-nano structure of Compound II-1 as an example, II-1 was dissolved in DMSO (also can be an organic solvent such as ethanol) to prepare a 2 mM storage solution, and a small amount of storage solution was added to deionized water to prepare 20 μM working solution. Took 10 μL and dropped it on copper mesh, observed and analyzed under transmission electron microscope (TEM), cryo-transmission electron microscope. Took 10 μL and dropped it on mica plate, observed and analyzed under atomic force microscope (AFM). In FIGS. 5, A, B, C and D were TEM photographs, cryo-transmission electron microscope photographs, AFM photographs, and AFM analysis data, respectively. According to the photographs and data, II-1 was self-assembled into nanosheets with a diameter of 40-70 nm and a thickness of 3.7-3.9 nm. […]

## CCN1C(=CC=C2CCCC(C=CC3=C(C#N)C(=C(C#N)C#N)OC3(C)C)=C2Cl)C(C)(C)c2ccccc21 [II-1]
Aqueous solution
  self-assembly to a micro-nano structure in aqueous solution: showed self-assembly behavior in aqueous solution
micro-nano structure, 20 μM working solution in deionized water, listed as Compound II-1
  DLS particle size range (nm): 10-300 nm
